# Patent US20120321594A1, “METHODS OF CONTROLLING AXON OR DENDRITE DEVELOPMENT OF NEURONAL CELLS” (NEW YORK UNIVERSITY, priority 2011, published 2012)
# At least one structure is not confirmed: it was looked up by name or label, or the drawing left a doubt.
# What was measured:
# cultured xSCINs = experiment: Neurite identity (tau-1 / MAP2 immunocytochemistry) of cultured xSCINs; format: cell-based, Xenopus laevis; details: agent bath-applied with Sema3A
# Experimental: Capped messenger RNAs encoding NP1-0111, hSema3A, mCav2.3α1E, and green fluorescent protein (GFP) were synthesized with mMESSAGE mMACHINE (Ambion Inc.) and purified on NucAway™ Spin Columns (Ambion Inc.) as described by the manufacturer. […] Each blastomere was injected with 4 to 8 nl of 0.5 μg·ul^−1 NPI-0111, 0.5 μg·μl^−1 hSema3A, or 0.5 μg·μl^−mCav2.3α1E mRNA and 0.25 μg·μl^−1 GFP mRNA as an expression indicator. Primary Xenopus spinal neurons derived from developmental stage 26 embryos were cultured at 23° C.-25° C. for 16-20 hours and used for growth cone electrophysiology (FIGS. 2A-2E; FIGS. 3A-3C) and immunocytochemistry (FIGS. 4A and 4B). To examine the neurite identity and expression of functional AMPA receptor channels (FIGS. 5A-5C), cells were plated on cover glasses that had been coated for four to six hours each with poly-L-lysine (100 μg·ml^−1) and laminin (80 μg·ml^−1) and incubated for three to four hours at 23° C.-25° C. prior to use. […]
# [1] = test system: tau-1-positive axons of Xenopus spinal cord; format: in vivo, Xenopus laevis
compound,measurement,setting,value
COCCOC(=O)C1=C(C)NC(C)=C(C(=O)OC(C)C)C1c1cccc([N+](=O)[O-])c1 (centres unmarked) [nimodipine],Sema3A-induced conversion of tau-1-positive axons to MAP2-positive dendrites in the presence of the agent,cultured xSCINs,neither L-types (nimodipine) nor N-types (ω-conotoxin GVIA) prevented the conversion
same,tau-1-IR after local administration into the spinal cord,[1],"neither nimodipine (FIG. 6F and bottom panel, labeled f; FIG. 6G) nor w-conotoxin GVIA (FIG. 6G) had significant effect"
